This is an account of results in publication PMC7466973.

The chains behind the UniProt entries cited, without tags or fusion partners.
UniProt Q03640: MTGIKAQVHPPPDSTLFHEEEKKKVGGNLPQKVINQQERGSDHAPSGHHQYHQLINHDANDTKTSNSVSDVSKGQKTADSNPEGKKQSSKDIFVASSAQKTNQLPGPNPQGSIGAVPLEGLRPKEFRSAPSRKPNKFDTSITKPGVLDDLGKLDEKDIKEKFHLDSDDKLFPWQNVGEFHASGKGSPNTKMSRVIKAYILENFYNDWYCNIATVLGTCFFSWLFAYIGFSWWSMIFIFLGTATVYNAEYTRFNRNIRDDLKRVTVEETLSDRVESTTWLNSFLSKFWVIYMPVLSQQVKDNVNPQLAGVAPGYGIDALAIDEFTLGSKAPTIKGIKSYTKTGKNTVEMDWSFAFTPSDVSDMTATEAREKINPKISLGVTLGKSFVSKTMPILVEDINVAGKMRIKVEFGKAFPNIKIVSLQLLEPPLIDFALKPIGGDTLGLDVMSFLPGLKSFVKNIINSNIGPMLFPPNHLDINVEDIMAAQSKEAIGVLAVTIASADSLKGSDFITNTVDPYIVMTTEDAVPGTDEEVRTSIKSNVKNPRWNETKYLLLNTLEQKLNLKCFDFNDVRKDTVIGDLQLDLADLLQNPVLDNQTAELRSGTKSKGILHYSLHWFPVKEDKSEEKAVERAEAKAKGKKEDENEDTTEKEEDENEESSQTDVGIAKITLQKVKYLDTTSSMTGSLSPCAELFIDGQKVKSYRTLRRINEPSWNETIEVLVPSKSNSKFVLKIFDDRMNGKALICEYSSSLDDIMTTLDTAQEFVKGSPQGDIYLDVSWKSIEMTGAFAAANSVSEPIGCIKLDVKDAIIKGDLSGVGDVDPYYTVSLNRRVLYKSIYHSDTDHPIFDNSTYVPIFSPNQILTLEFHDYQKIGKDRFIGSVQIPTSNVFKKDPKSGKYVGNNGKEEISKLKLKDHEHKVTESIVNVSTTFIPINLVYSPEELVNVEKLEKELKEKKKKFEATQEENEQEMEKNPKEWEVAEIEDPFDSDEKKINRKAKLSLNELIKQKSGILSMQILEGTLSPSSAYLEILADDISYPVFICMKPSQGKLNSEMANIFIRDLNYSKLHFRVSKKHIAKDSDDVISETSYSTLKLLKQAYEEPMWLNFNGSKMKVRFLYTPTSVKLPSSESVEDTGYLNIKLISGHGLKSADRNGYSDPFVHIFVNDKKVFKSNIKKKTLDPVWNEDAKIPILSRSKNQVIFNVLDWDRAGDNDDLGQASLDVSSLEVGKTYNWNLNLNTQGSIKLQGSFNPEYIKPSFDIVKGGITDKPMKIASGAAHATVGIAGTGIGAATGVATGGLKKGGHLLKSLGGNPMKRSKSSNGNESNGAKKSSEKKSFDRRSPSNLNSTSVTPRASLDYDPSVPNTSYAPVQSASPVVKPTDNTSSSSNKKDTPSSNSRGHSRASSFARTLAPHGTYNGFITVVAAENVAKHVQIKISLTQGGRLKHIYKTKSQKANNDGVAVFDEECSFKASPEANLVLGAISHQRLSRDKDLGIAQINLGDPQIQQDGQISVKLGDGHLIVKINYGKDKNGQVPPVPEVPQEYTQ
UniProt P29311: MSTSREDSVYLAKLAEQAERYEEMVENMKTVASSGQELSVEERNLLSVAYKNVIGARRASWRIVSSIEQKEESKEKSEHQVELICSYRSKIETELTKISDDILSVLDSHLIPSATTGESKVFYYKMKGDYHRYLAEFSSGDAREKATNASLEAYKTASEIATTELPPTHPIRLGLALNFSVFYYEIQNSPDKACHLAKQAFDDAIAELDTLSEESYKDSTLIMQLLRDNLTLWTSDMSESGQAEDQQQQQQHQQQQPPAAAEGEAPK
UniProt P23291: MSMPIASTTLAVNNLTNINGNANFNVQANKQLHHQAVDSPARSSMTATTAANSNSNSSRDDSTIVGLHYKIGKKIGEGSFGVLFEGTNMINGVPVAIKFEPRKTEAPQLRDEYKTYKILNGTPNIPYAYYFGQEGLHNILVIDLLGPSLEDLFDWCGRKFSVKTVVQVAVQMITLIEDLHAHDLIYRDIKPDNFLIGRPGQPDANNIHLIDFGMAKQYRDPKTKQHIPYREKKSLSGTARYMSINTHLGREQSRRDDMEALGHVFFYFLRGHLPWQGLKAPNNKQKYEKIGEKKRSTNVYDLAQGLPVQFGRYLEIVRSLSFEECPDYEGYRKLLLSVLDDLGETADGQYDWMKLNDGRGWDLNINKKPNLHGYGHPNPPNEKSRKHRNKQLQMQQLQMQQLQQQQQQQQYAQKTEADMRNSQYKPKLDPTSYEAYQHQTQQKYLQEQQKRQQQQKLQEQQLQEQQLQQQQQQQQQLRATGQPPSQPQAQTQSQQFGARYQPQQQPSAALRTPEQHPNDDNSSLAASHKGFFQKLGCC
UniProt P23292: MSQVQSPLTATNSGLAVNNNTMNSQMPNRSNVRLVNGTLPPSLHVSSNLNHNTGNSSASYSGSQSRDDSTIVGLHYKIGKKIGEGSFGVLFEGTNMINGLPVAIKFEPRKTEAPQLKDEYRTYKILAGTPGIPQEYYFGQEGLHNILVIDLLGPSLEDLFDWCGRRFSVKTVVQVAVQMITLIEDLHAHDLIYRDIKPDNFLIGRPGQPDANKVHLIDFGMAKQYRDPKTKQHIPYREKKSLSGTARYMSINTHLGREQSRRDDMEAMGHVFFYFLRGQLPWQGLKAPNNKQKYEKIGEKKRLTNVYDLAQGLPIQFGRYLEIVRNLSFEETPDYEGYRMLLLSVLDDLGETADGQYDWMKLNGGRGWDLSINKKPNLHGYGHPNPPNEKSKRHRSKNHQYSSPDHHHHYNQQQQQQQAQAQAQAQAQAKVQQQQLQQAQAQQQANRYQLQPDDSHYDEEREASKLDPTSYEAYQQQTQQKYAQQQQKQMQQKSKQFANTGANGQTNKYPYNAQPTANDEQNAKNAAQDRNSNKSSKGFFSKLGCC

Results are given in words; binding and its absence hold for the method and conditions named. Binding seen in cells or lysates may run through a third protein. These calls come from enrichment with a bait or labelling near it, and not all partners need be listed. Tags and fused reporters may be left off the sequences shown.

Assay [1] deals with T1, Wsc3p-GFP (S. cerevisiae) (UniProt Q12215).
T1 sequence: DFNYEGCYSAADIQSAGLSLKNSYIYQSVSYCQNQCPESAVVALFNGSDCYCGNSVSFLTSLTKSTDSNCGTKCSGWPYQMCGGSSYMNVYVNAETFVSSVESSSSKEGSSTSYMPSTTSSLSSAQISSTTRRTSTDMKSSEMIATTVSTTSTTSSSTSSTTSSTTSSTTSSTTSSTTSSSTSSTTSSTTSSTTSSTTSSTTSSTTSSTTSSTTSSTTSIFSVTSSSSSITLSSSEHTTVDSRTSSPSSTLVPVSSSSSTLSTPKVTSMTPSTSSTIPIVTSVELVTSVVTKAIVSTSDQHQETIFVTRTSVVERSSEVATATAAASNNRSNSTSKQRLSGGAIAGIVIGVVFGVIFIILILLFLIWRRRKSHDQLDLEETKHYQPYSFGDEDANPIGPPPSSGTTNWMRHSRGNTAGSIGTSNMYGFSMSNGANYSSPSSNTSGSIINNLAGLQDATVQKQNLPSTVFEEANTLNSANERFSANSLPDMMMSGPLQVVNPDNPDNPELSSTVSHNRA
Nature of the assay: affinity purification with mass spectrometry; IP-MS of endogenously expressed GFP-tagged baits from total yeast protein extracts; lysate cross-linked with 1 mM DSP on ice, 1% digitonin, capture on uMACS microbeads and MACS columns, on-bead trypsin digestion, Orbitrap Elite; untagged BY4742 as control; valid with two or more unique peptides of >=95% probability.

Assay [2] has as its target T2, Wsc2p-GFP (S. cerevisiae) (UniProt P53832).
T2 sequence: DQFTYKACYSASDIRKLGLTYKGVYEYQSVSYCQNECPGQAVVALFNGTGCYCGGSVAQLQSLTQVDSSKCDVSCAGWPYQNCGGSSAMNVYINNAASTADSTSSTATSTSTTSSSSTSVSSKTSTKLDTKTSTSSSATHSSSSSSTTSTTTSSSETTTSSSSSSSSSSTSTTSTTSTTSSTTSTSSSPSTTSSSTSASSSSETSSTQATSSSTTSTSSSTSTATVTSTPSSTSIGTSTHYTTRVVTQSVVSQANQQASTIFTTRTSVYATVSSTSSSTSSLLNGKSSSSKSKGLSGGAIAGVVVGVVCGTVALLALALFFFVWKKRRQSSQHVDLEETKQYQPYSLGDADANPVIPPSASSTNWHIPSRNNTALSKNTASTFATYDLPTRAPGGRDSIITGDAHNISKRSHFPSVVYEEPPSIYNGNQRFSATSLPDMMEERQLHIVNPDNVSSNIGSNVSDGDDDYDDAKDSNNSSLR
The description is as above.

In the case of “Tcb3p (endogenous) (from UniProt Q03640 1-1545)”, the binding result in assay [1] and in assay [2] was “binds” throughout. For the molecule “Bmh1p (endogenous) (from UniProt P29311 1-267)”, the binding result in assay [1] was “binds”. “Yck1p (endogenous) (from UniProt P23291 1-538)”: the binding result in assay [1] and in assay [2] was “binds” throughout. As for “Yck2p (endogenous) (from UniProt P23292 1-546)”, the binding entry in assay [2] was “binds”.

B1: Hek2p (endogenous) (protein, UniProt P38199 1-381)
chain: MSQFFEAATPVAIPTNNTNGGSSDAGSAATGGAPVVGTTAQPTINHRLLLSLKEAAKIIGTKGSTISRIRAANAVKIGISEKVPGCSDRILSCAGNVINVANAIGDIVDVLNKRNPENEDAAEGEAEEHYYFHFLNHILPAPSKDEIRDLQQLEDIGYVRLIVANSHISSIIGKAGATIKSLINKHGVKIVASKDFLPASDERIIEIQGFPGSITNVLIEISEIILSDVDVRFSTERSYFPHLKKSSGEPTSPSTSSNTRIELKIPELYVGAIIGRGMNRIKNLKTFTKTNIVVERKDDDDKDENFRKFIITSKFPKNVKLAESMLLKNLNTEIEKRENYKRKLEAAEGDATVVTERSDSASFLEEKEEPQENHDNKEEQS
Turning to B1, in assay [2], the binding result is listed as “binds”.

B2: Ras2p (endogenous) (protein, UniProt P01120 1-322)
chain: MPLNKSNIREYKLVVVGGGGVGKSALTIQLTQSHFVDEYDPTIEDSYRKQVVIDDEVSILDILDTAGQEEYSAMREQYMRNGEGFLLVYSITSKSSLDELMTYYQQILRVKDTDYVPIVVVGNKSDLENEKQVSYQDGLNMAKQMNAPFLETSAKQAINVEEAFYTLARLVRDEGGKYNKTLTENDNSKQTSQDTKGSGANSVPRNSGGHRKMSNAANGKNVNSSTTVVNARNASIESKTGLAGNQATNGKTQTDRTNIDNSTGQAGQANAQSANTVNNRVNNNSKAGQVSNAKQARKQQAAPGGNTSEASKSGSGGCCIIS
As for B2, the binding result in assay [1] and in assay [2] was “binds” throughout.
